Assay results reported in patent US20040018558A1.
These are yes or no findings as the source states them, for the method shown. Some results given as binding are weak or reduced against the parent protein; the word gives no strength.

T1: human thrombin receptor (PAR1) (human) (UniProt P25116)
T1 sequence (looked up): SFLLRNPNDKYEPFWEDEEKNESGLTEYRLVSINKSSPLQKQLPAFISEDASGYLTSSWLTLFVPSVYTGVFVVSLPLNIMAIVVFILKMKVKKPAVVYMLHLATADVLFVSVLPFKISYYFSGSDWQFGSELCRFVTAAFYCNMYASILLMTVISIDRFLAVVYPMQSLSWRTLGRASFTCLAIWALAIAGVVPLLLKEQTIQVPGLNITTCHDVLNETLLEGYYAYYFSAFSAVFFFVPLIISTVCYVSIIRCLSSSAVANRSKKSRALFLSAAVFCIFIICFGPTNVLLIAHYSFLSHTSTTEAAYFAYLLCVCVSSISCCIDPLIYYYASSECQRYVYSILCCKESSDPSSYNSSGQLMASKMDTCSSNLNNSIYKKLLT


Legend:
[1] = molecular target: T1, human thrombin receptor (PAR1) (human); test: G11 library panning, CHO expressed PAR1
[2] = molecular target: T1, human thrombin receptor (PAR1) (human); test: LacI display panning, CHO membranes with PAR1
[3] = molecular target: T1, human thrombin receptor (PAR1) (human); test: G11 library panning, recombinant reconstituted PAR1
[4] = molecular target: T1, human thrombin receptor (PAR1) (human); test: LacI display panning, purified PAR1 in lipid vesicles
[5] = molecular target: T1, human thrombin receptor (PAR1) (human); test: LacI display panning of the G12 library, CHO membranes with PAR1
[6] = molecular target: T1, human thrombin receptor (PAR1) (human); test: G11 library panning, Sf9 expressed PAR1
[7] = molecular target: T1, human thrombin receptor (PAR1) (human); test: LacI display panning, Sf9 membranes with PAR1

binding [1] | binding [6] | Binder | further results
binds |  | LQLNRKNYNLV (peptide, not shown: small tags and cut ends) | 
binds |  | LQLDLKESNMV (peptide, not shown: small tags and cut ends) | 
 | binds | LPLNLIDFSLM (peptide, not shown: small tags and cut ends) | 
 | binds | LPLNPKEYSLV (peptide, not shown: small tags and cut ends) | 
binds |  | LQLNLKKYNRV (peptide, not shown: small tags and cut ends) | 
 | binds | LVLNRIEYNLL (peptide, not shown: small tags and cut ends) | 
binds |  | LQYNLKESFVV (peptide, not shown: small tags and cut ends) | 
 | binds | LKRKVKEYNLG (peptide, not shown: small tags and cut ends) | 
binds |  | LQLRVKEYKRG (peptide, not shown: small tags and cut ends) | binding [3]: binds
 | binds | LPRNLKEYDLG (peptide, not shown: small tags and cut ends) | 
binds |  | LQIYLKGYNLV (peptide, not shown: small tags and cut ends) | binding [3]: binds
 | binds | LRLNDIEALLV (peptide, not shown: small tags and cut ends) | 
binds |  | WRLSLKVYNLV (peptide, not shown: small tags and cut ends) | 
 | binds | MWPSLKRYLKESNLV (peptide, not shown: small tags and cut ends) [Clone S3-10 …] | binding [7]: binds
 | binds | LKRKLKESNMG (peptide, not shown: small tags and cut ends) | 
binds |  | QLLNQYVYNLV (peptide, not shown: small tags and cut ends) | 
binds |  | IQLNLKNYNIV (peptide, not shown: small tags and cut ends) | 
binds |  | LVIKPKEFNLV (peptide, not shown: small tags and cut ends) | 
binds |  | MQLNLKEYNLV (peptide, not shown: small tags and cut ends) | 
 | binds | LFLNLKEYSLV (peptide, not shown: small tags and cut ends) | 
 | binds | LELNLKVYNLV (peptide, not shown: small tags and cut ends) | 
 | binds | QMPNLQMYLRGYNLV (peptide, not shown: small tags and cut ends) [Clone S3-8 …] | binding [7]: binds
binds |  | VQVKLKEYNLV (peptide, not shown: small tags and cut ends) | binding [3]: binds
 | binds | CVEMNLTLKECNLV (peptide, not shown: small tags and cut ends) [Clone S3-15 …] | binding [7]: binds
binds |  | LQRDHVEYKLF (peptide, not shown: small tags and cut ends) | 

The next lines start with the binder.

Binder | binding [1] | binding [6] | further results
PRQLLQLKRGEYILV (peptide, not shown: small tags and cut ends) [Clone C4-5 …] | binds |  | binding [2]: binds
SWVLQFNLNDCNLV (peptide, not shown: small tags and cut ends) [Clone R2-16 …] | binds |  | binding [3]: binds; binding [4]: binds
SGPQLQLNVKEYNLV (peptide, not shown: small tags and cut ends) [Clone R3-44 …] | binds |  | binding [3]: binds; binding [4]: binds
PQVNLKSIMRQ (peptide, not shown: small tags and cut ends) |  |  | binding [5]: binds
LSTNLHLNLKEYNLV (peptide, not shown: small tags and cut ends) [Clone C7-13 …] | binds |  | binding [2]: binds
RLTRLQLRYKCYNLV (peptide, not shown: small tags and cut ends) [Clone R2-21 …] | binds |  | binding [3]: binds; binding [4]: binds
MLNLRIYLKGYNLV (peptide, not shown: small tags and cut ends) [Clone R3-46 …] |  |  | binding [4]: binds
RWIVLQLNLKVYNLV (peptide, not shown: small tags and cut ends) [Clone S1-18 …] |  | binds | binding [7]: binds
CEPGLHLNMAEVSLV (peptide, not shown: small tags and cut ends) [Clone S2-30 …] |  | binds | binding [7]: binds
LSRSLQQKLKEYSLV (peptide, not shown: small tags and cut ends) [Clone C7-14 …] | binds |  | binding [2]: binds
VRPSLQLNRNEYYLV (peptide, not shown: small tags and cut ends) [Clone C4-19 …] | binds |  | binding [2]: binds
VPSPLQKNLKEYNMV (peptide, not shown: small tags and cut ends) [Clone S3-6 …] |  | binds | binding [7]: binds
LQETMKDQSLQ (peptide, not shown: small tags and cut ends) |  |  | binding [5]: binds
FVNCLQRNKKQYNLG (peptide, not shown: small tags and cut ends) [Clone R2-17 …] | binds |  | binding [3]: binds; binding [4]: binds
WQHKLSEVMLQ (peptide, not shown: small tags and cut ends) |  |  | binding [5]: binds
RSEVLQLKHKENNLM (peptide, not shown: small tags and cut ends) [Clone S2-26 …] |  | binds | binding [7]: binds

Binder | binding [1] | binding [6] | further results
GGHLELNLKVYNLF (peptide, not shown: small tags and cut ends) [Clone S1-23 …] |  | binds | binding [7]: binds
HQMALQVNLEEYHLV (peptide, not shown: small tags and cut ends) [Clone S2-36 …] |  | binds | binding [7]: binds
SIRMKLNVSESNLV (peptide, not shown: small tags and cut ends) [Clone S1-13 …] |  | binds | binding [7]: binds
FFWVCSLKLKAYNLV (peptide, not shown: small tags and cut ends) [Clone C5-12 …] | binds |  | binding [2]: binds
QRDTLQMNHNEYNLV (peptide, not shown: small tags and cut ends) [Clone C4-16 …] | binds |  | binding [2]: binds
MTHSVHVKLKEYNLV (peptide, not shown: small tags and cut ends) [Clone R3-38 …] |  |  | binding [3]: binds; binding [4]: binds
LRLDFSEKQLV (peptide, not shown: small tags and cut ends) |  |  | binding [3]: binds
SRHTLRLNGKELNLV (peptide, not shown: small tags and cut ends) [Clone C5-10 …] | binds |  | binding [2]: binds
SAKELDQYNLG (peptide, not shown: small tags and cut ends) |  |  | binding [3]: binds
SRKLQQSLIEYNLL (peptide, not shown: small tags and cut ends) [Clone R3-37 …] | binds |  | binding [3]: binds; binding [4]: binds
LYLDLKEYCLF (peptide, not shown: small tags and cut ends) |  |  | binding [3]: binds
LQRNKNQYNLG (peptide, not shown: small tags and cut ends) |  |  | binding [3]: binds
EVRRMKLKLKEDNLV (peptide, not shown: small tags and cut ends) [Clone R2-18 …] | binds |  | binding [3]: binds; binding [4]: binds
LPQMQRLNVGEYNLV (peptide, not shown: small tags and cut ends) [Clone C7-10 …] | binds |  | binding [2]: binds
RVQHQLDLLEYNLG (peptide, not shown: small tags and cut ends) [Clone R2-20 …] | binds |  | binding [3]: binds; binding [4]: binds
NFRNPQLNLNAYNLV (peptide, not shown: small tags and cut ends) [Clone C7-3 …] | binds |  | binding [2]: binds
